In the assay the target is aryl hydrocarbon receptor (human (endogenous in primary normal human epidermal keratinocytes)) (UniProt P35869). The experiment in a line: proximity ligation; Duolink proximity ligation on fixed, permeabilised primary human keratinocytes; endogenous proteins; mouse anti-AhR (A-3) with rabbit anti-LC3 or rabbit anti-p62; cells treated with 10 ug/mL hBD-3 or 0.01% acetic acid (vehicle) for 9 hours, with control siRNA or AhR siRNA.

Protein sequences, listed by entry. Tags and fused reporters are not part of them. Residues count along the entry.
UniProt P35869, residues 11-848: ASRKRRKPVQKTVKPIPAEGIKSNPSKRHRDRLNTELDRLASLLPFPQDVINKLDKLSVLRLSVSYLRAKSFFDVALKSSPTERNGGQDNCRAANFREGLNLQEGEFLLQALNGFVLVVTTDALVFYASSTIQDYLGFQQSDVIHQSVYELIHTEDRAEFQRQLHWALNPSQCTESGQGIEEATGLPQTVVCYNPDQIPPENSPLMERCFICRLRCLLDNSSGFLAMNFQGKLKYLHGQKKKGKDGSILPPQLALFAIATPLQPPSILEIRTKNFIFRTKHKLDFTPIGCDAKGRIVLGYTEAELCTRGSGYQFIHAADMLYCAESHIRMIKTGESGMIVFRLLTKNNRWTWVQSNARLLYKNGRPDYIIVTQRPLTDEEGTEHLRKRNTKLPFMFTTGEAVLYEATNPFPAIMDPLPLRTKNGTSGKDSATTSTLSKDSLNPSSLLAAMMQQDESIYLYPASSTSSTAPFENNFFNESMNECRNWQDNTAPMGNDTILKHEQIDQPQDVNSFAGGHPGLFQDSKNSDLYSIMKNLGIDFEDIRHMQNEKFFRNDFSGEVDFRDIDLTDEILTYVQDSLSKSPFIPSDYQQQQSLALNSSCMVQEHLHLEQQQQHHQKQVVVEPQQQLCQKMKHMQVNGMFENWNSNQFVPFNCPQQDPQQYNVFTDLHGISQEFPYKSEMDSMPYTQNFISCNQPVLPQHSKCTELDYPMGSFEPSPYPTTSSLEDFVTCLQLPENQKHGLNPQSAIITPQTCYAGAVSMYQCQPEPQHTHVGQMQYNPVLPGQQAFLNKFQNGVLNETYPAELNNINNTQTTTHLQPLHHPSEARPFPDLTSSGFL

Results are given in words; binding and its absence hold for the method and conditions named. Binding seen in cells or lysates may run through a third protein. Some entries that bind do so weakly or less than the wild type.

On to “sequestosome-1/p62 (from UniProt Q13501 1-440)”, for which the binding entry is reported as “binds”.

The record behind these values is paper PMC9435650.
